Some of the results follow. The calls rarely recur for the same compound in another form.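 In K562 cells expressing nanoluciferase-fused kinases, luminescence was recorded at 4 h intervals between 2 and 18 h, normalized as percent of control with DMSO at 100% and a positive control at 0%. A significant (2 sigma) signal drop marks a time point as decreased. The authors' rule for a hit is not shown and takes in more than the number of time points.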
Assays:
Test in all cases: number of time points (of 5) at which kinase-Nluc abundance scored as decreased, DMSO-normalised (count); higher = more persistent destabilization
Settings in all cases: K562; 2-18 h
LMTK2 = LMTK2 (UniProt Q8IWU2)
LYN = LYN (UniProt P07948)
MAP2K1 = MAP2K1 (UniProt Q02750)
MAP2K2 = MAP2K2 (UniProt P36507)
MAP4K2 = MAP4K2 (UniProt Q12851)
MAPK1 = MAPK1 (UniProt P28482)
MAPK4 = MAPK4 (UniProt P31152)
MAPKAPK2 = MAPKAPK2 (UniProt P49137)
MKNK1 = MKNK1 (UniProt Q9BUB5)
NTRK2 = NTRK2 (UniProt Q16620)
NTRK3 = NTRK3 (UniProt Q16288)
PAK4 = PAK4 (UniProt O96013)
PBK = PBK (UniProt Q96KB5)
PDGFRB = PDGFRB (UniProt P09619)
PDK1 = PDK1 (UniProt Q15118)
PDPK1 = PDPK1 (UniProt O15530)
PIK4CA = PIK4CA (UniProt P42356)
PIK4CB = PIK4CB (UniProt Q9UBF8)
PLK1 = PLK1 (UniProt P53350)
PRKAA1 = PRKAA1 (UniProt Q13131)

The chains behind the UniProt entries cited, without tags or fusion partners. Where a name states a change or a piece, a line headed by the entry shows the natural chain unless it says otherwise.
UniProt P07948: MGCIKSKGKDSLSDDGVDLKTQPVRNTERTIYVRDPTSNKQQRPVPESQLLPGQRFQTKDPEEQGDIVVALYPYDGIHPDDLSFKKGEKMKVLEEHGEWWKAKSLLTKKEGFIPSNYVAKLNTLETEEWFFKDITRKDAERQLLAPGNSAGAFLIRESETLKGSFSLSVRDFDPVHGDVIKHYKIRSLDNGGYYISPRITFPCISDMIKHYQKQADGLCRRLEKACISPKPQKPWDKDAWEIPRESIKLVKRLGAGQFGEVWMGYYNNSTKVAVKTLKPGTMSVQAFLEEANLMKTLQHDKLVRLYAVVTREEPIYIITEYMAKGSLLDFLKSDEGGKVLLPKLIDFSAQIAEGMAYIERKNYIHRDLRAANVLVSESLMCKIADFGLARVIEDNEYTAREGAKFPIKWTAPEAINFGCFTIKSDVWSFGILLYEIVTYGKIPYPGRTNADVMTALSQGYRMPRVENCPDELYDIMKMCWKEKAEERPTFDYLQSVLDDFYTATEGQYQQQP
UniProt Q12851: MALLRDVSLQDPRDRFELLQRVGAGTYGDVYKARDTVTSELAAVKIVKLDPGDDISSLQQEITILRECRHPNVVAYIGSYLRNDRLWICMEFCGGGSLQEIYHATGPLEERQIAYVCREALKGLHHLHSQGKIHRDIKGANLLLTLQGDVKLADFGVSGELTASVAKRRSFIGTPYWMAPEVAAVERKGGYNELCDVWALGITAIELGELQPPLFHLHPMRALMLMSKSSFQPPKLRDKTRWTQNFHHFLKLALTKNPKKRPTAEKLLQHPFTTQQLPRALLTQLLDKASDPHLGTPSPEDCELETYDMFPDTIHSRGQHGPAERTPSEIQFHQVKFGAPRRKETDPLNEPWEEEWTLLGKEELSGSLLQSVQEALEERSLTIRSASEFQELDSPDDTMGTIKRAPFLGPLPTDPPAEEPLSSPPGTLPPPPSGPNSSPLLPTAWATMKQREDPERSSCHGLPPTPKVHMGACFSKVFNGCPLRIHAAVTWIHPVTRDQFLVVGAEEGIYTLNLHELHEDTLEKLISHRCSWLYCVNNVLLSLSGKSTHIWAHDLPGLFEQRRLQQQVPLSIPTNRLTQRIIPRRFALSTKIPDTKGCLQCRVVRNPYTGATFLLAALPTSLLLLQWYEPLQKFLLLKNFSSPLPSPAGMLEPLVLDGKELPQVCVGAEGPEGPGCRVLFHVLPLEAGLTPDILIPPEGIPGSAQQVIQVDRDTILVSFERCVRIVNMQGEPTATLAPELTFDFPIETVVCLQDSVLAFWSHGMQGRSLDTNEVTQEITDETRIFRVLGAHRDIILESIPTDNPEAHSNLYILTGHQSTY
UniProt P28482, whole entry: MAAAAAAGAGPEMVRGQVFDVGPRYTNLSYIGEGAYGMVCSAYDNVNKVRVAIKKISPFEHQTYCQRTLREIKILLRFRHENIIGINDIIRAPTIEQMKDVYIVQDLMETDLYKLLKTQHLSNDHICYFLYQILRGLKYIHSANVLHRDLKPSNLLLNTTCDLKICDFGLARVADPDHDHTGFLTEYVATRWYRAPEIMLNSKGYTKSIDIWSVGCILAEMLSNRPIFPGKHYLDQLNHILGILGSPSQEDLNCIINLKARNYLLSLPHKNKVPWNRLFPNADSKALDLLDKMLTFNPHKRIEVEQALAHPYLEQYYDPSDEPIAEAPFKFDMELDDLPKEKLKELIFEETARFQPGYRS
UniProt P49137, whole entry, looked up: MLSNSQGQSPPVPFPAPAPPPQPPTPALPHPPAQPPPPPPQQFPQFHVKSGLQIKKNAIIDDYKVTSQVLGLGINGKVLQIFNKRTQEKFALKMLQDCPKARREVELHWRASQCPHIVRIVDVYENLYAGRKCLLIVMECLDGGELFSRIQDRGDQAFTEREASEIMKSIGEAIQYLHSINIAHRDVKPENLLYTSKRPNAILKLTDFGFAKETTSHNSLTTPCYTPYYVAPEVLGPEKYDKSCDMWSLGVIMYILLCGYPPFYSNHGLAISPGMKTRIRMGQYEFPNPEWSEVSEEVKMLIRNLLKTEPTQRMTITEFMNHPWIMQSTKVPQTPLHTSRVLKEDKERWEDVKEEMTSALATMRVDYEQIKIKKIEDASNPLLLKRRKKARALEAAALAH
UniProt Q9BUB5: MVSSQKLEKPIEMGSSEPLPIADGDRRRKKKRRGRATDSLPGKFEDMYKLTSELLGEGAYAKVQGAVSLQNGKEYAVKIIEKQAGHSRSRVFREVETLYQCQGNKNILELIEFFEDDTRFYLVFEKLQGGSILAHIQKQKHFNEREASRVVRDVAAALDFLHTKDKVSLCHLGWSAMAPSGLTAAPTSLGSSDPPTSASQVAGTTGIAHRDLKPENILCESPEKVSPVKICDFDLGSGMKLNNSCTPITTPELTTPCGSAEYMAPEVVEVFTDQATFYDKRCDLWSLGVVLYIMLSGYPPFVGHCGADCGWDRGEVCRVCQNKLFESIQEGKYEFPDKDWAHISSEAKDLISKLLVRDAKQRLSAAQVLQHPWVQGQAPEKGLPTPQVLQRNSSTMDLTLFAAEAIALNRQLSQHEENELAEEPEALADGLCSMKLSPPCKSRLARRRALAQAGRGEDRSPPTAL
UniProt Q16620, whole entry, looked up: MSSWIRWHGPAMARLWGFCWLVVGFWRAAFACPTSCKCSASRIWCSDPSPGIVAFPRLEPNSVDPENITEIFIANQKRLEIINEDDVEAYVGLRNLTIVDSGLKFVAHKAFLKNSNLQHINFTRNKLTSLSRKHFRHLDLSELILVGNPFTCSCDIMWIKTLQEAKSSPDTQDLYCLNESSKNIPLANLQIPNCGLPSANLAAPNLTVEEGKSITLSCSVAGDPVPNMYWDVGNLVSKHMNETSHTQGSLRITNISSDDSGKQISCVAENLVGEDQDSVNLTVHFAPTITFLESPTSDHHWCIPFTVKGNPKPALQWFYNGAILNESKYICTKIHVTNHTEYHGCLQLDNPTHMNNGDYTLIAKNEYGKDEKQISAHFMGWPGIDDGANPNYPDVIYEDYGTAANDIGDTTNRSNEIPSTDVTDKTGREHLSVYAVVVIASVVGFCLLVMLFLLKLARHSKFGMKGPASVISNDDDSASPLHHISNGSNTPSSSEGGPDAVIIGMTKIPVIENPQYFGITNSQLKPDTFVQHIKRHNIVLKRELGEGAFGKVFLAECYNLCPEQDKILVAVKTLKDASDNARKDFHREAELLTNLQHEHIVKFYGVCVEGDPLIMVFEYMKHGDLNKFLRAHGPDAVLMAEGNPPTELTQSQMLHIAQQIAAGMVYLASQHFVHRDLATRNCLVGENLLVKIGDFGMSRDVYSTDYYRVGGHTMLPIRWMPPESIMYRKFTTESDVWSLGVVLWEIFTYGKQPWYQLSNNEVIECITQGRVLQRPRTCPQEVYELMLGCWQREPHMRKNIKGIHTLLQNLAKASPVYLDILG
UniProt Q16288, whole entry, looked up: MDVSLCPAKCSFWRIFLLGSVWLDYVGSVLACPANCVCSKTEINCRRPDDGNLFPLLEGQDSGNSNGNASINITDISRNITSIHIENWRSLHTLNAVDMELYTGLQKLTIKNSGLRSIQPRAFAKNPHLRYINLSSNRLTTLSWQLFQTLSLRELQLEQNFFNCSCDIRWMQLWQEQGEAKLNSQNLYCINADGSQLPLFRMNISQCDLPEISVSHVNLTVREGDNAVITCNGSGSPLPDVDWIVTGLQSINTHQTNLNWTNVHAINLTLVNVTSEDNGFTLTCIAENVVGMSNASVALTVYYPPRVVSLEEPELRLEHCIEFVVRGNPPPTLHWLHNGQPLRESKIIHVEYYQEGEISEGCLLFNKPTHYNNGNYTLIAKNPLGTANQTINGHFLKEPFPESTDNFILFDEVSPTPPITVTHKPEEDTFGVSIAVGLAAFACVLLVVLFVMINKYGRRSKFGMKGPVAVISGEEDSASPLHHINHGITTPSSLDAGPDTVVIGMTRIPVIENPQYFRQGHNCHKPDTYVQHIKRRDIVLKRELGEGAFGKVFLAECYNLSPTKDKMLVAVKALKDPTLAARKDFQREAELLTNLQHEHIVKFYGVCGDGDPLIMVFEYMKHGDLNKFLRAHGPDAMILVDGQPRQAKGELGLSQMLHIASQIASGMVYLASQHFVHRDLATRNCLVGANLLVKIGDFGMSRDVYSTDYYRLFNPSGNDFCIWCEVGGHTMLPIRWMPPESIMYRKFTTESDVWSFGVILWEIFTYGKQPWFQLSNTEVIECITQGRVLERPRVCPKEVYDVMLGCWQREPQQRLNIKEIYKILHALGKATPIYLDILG
UniProt P09619, whole entry: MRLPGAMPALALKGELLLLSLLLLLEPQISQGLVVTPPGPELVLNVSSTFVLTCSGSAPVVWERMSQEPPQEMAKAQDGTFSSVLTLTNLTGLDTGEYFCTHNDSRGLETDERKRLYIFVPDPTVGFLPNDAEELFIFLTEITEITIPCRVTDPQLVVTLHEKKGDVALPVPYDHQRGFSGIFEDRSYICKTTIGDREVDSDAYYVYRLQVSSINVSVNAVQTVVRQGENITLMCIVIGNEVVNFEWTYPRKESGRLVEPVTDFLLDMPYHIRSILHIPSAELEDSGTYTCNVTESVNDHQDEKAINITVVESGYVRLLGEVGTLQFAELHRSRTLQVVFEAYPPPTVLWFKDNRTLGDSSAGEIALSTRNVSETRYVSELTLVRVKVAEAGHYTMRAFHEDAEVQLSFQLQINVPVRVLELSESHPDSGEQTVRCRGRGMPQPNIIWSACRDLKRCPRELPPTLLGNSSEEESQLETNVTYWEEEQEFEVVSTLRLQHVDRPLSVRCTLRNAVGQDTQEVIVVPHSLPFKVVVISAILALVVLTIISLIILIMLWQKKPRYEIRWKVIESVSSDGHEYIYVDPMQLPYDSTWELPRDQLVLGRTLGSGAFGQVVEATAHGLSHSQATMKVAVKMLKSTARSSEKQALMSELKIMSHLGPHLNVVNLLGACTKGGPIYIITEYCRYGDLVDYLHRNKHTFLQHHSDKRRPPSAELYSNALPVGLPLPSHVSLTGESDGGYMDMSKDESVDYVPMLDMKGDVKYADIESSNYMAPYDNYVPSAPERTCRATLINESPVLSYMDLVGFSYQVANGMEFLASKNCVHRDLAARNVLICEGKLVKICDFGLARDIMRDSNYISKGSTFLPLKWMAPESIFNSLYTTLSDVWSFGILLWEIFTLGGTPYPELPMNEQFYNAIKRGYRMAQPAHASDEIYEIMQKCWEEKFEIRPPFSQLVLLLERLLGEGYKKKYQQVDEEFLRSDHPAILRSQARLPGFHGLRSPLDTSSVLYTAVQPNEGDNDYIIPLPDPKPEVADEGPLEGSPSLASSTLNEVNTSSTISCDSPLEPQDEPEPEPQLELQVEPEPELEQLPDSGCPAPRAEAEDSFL
UniProt O15530: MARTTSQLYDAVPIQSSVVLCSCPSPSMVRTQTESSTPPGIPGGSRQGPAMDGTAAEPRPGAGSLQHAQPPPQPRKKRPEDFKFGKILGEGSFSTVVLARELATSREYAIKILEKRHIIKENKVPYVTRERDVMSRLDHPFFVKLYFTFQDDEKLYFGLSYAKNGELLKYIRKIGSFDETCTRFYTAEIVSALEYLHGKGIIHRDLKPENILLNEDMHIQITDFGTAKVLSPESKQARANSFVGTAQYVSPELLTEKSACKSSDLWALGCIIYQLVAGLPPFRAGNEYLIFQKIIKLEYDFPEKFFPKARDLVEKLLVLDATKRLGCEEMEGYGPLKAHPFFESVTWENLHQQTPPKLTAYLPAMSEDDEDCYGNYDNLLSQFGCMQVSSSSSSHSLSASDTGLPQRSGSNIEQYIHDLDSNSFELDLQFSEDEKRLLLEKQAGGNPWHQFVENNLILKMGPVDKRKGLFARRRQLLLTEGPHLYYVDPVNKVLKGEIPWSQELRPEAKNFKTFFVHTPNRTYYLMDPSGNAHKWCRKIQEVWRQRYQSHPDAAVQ
UniProt Q13131: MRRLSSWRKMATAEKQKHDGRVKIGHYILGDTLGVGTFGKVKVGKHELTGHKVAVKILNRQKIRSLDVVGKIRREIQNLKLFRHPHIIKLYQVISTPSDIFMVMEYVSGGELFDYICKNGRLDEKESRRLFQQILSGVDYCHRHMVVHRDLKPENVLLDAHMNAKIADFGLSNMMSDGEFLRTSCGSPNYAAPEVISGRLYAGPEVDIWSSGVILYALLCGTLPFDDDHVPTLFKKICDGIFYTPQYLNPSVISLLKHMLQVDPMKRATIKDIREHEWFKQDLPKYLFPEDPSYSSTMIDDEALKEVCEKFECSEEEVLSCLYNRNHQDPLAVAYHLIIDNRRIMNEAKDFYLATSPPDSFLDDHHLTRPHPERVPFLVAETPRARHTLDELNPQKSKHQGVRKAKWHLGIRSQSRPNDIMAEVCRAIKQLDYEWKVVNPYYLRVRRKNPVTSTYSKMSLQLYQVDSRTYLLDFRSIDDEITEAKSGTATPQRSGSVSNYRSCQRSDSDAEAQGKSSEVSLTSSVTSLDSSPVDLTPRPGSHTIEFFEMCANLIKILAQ

Measured: number of time points

COc1c(O)cc2oc3cc(O)c(CC=C(C)C)c(O)c3c(=O)c2c1CCC(C)(C)O [Garcinone D] (2.5 µM)
0: LMTK2 | LYN | MAP2K1 | MAP2K2 | MAP4K2 | MAPK1 | MAPK4 | MAPKAPK2 | MKNK1 | NTRK2 | NTRK3 | PAK4 | PBK | PDGFRB | PDK1 | PDPK1 | PIK4CA | PIK4CB | PLK1 | PRKAA1

CNC(=O)c1ccc(-c2cnc3cnc(-c4ccccc4)cn23)cc1 (10 µM)
0: LMTK2 | LYN | MAP2K1 | MAP2K2 | MAP4K2 | MAPK1 | MAPK4 | MAPKAPK2 | MKNK1 | NTRK2 | NTRK3 | PAK4 | PBK | PDGFRB | PDK1 | PDPK1 | PIK4CA | PIK4CB | PLK1 | PRKAA1

C=C(F)C(=O)N1CCN(c2nc(OC[C@@H]3CCCN3C)nc3c2CCN(c2cccc4cccc(Cl)c24)C3)C[C@@H]1CC#N (2.5 µM)
0: LMTK2 | LYN | MAP2K1 | MAP2K2 | MAP4K2 | MAPK1 | MAPK4 | MAPKAPK2 | MKNK1 | NTRK2 | NTRK3 | PAK4 | PBK | PDGFRB | PDK1 | PDPK1 | PIK4CA | PIK4CB | PLK1 | PRKAA1
